From patent US20130059786A1 come the findings set out here.

Results are given in words; binding and its absence hold for the method and conditions named. Some results given as binding are weak or reduced against the parent protein; the word gives no strength. Where a sequence is shown, tags or fusion partners need not be part of it.

For this assay, the target named is rat Cthrc1 with C terminal myc/6xHis tag, recombinant, purified from CHO conditioned medium (rat) (UniProt Q8CG08). Briefly: non-reducing SDS-PAGE and autoradiography of mouse plasma after injection of 125I-Cthrc1.

B1: rat Cthrc1 with C terminal myc/6xHis tag, recombinant, purified from CHO conditioned medium (protein)
chain: SENPKVKQKALIRQREVVDLYNGMCLQGPAGVPGRDGSPGANGIPGTPGIPGRDGFKGEKGECLRESFEESWTPNYKQCSWSSLNYGIDLGKIAECTFTKMRSNSALRVLFSGSLRLKCRNACCQRWYFTFNGAECSGPLPIEAIIYLDQGSPELNSTINIHRTSSVEGLCEGIGAGLVDVAIWVGTCSDYPKGDASTGWNSVSRIIIEELPKEQKLISEEDLHHHHHH
modifications: radiolabeled with 125I (in the plasma clearance experiment only)
In the case of B1, the binding entry is listed as “binds”.
